Laboratory results as given in PubChem BioAssay AID2662 (National Center for Advancing Translational Sciences (NCATS), 2010).
Hit rate of the full screen: of about 290,000 compounds, about 110 (0.038%) were called active. Inconclusive results, whose numbers are uncertain, are shown with a selection of clear calls. Calls follow the shape of the dose curve; as a rule, active = well fitted inhibition curve with a large enough effect in the polarisation, with a control signal flat (not every such curve was filed as active); inconclusive = small, poorly fitted or top-dose-only effect, or effect the other way, or a change in a side signal; inactive = no such curve, though single readings can be large or run the other way; the % refers to the polarisation. Potencies beside an inconclusive call are fits to weak or partial responses and may not hold up. “Side channel” marks fits to a control or component signal instead of the main read-out.

Protein sequences, listed by entry. Tags and fused reporters are not part of them.
UniProt Q03164, whole entry, looked up: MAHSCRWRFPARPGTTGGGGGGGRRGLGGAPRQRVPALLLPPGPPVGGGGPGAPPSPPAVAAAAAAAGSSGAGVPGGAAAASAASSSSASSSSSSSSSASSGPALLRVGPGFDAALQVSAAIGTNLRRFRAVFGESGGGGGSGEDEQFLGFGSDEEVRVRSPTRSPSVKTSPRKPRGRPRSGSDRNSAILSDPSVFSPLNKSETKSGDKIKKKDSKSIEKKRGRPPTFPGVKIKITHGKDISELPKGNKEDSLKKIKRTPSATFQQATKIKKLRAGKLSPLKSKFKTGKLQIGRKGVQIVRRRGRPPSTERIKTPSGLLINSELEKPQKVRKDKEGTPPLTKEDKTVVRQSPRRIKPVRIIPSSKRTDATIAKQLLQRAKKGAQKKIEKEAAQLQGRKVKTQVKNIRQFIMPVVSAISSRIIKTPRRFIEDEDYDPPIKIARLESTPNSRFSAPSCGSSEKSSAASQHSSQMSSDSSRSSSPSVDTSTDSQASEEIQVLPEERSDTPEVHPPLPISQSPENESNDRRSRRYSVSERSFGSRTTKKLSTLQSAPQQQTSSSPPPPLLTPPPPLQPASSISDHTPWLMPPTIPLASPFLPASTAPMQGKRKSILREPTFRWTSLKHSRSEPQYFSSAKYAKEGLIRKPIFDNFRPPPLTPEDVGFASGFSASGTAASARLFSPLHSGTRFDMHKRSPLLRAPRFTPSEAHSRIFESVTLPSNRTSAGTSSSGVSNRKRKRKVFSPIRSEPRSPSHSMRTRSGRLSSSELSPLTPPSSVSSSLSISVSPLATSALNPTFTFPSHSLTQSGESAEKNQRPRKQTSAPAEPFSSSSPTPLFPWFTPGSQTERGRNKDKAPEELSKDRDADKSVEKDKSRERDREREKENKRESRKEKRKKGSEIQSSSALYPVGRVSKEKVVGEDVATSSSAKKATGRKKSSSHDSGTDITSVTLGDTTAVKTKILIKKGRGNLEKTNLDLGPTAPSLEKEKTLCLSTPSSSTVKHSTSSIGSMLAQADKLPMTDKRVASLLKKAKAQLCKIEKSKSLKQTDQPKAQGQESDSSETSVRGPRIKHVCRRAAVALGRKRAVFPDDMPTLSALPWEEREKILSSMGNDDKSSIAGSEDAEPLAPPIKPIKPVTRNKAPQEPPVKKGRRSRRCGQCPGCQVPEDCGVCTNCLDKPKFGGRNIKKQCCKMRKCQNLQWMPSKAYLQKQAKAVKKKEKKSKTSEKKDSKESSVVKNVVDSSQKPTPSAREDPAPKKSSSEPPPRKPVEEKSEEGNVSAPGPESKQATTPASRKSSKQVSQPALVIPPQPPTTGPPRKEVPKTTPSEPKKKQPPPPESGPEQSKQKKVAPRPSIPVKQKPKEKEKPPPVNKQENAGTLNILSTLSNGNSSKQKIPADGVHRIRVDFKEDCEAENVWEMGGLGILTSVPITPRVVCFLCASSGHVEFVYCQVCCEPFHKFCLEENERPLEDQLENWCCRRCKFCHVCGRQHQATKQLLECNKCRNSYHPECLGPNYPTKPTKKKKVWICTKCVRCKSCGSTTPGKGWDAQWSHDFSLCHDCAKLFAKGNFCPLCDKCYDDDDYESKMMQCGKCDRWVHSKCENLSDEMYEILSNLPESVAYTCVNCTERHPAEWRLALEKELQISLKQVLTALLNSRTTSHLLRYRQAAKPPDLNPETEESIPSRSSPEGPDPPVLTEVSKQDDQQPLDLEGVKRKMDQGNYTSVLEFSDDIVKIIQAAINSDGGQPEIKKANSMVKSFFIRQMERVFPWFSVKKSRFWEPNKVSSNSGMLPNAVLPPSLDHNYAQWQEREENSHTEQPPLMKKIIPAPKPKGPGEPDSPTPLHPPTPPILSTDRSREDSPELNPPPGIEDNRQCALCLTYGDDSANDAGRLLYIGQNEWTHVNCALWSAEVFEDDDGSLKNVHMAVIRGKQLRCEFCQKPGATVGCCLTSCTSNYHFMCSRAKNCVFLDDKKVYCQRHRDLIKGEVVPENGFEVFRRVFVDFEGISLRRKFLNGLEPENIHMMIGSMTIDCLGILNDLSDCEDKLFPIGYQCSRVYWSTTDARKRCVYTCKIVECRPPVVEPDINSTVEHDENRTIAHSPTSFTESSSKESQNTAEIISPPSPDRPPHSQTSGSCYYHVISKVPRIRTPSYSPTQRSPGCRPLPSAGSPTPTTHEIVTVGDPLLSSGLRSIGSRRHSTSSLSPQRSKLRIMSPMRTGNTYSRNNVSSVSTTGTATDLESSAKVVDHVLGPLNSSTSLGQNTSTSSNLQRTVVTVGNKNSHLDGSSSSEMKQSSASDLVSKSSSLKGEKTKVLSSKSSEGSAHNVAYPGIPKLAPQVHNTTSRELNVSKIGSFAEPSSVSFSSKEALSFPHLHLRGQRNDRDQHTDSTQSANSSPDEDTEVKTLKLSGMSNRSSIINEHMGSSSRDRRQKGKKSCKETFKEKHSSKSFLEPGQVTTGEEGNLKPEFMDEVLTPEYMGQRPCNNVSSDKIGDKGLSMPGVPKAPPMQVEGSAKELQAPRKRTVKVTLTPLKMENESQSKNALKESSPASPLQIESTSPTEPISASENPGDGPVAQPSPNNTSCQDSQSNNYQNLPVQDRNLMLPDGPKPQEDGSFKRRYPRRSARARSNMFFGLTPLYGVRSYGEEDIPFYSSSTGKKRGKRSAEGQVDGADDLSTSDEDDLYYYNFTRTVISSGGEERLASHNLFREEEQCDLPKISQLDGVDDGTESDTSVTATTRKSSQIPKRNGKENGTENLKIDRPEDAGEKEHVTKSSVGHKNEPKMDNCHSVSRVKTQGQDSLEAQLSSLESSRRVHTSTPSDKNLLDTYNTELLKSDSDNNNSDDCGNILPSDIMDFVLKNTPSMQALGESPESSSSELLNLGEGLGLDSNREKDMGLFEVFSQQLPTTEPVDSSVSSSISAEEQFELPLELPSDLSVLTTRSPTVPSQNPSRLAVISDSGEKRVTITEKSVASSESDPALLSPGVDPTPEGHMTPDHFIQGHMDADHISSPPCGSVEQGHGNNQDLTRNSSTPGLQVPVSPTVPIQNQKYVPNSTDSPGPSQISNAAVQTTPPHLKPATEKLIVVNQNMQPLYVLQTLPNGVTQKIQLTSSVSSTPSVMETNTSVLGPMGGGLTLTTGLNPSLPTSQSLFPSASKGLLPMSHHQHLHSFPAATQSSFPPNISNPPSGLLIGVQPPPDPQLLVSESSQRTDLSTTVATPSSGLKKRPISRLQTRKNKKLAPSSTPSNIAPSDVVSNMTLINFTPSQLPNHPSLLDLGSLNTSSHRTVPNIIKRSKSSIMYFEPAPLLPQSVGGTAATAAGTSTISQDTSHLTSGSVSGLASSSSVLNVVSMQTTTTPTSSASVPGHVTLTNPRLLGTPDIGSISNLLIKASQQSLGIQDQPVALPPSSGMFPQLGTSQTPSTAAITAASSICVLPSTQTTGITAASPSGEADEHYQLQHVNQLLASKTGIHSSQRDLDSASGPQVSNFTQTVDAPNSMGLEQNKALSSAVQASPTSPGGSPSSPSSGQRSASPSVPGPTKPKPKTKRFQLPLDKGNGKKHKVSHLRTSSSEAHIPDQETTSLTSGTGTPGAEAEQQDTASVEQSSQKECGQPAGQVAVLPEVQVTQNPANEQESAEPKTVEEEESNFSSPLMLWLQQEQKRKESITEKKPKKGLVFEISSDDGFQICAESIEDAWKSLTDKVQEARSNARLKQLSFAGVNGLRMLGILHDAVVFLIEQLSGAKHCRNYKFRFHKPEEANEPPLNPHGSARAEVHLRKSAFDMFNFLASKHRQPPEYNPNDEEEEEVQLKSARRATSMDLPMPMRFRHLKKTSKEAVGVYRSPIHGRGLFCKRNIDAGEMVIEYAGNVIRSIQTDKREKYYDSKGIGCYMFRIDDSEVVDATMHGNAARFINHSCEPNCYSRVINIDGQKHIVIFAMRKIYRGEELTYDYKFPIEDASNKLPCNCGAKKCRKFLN

Target: Histone-lysine N-methyltransferase 2A (Homo sapiens) (UniProt Q03164)
Assay: qHTS Fluorescence Polarization Assay for Inhibitors of MLL CXXC domain - DNA interaction
Conditions: MLL-CXXC / FITC-HOXA9 DNA fluorescence polarization; series mostly up to 115 µM
In short: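 Purified MLL-CXXC (added from a 7 uM solution) was preincubated 5 min at ambient with pinned compounds in 50 mM Tris-HCl pH 7.5, 50 mM NaCl, 1 mM DTT, 0.05% BSA. Fluorescein-labeled HOX-A9 DNA (50 nM solution) followed, 30 min, then polarization read.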
Potency is read from the fitted curve at half-maximal effect.

SMILES | Potency
CCc1ccc(C(=O)NN=C2CCCCCC2)s1 | inactive
O=C(Nc1ccc(OCC(F)(F)C(F)F)cc1)c1ccncc1 | inconclusive: 50.1 µM [inhibitor, single point]
CC(=O)n1cc([C@@H]2C=C(C(=O)N3CCOCC3)O[C@H](OCCCCO)C2)c2ccccc21 | inconclusive: 22.4 µM [inhibitor, full curve, poor fit]
CN1CCN(CCC(=O)N/N=C/c2cc3c(cc2[N+](=O)[O-])OCO3)CC1 | inconclusive: 89.1 µM [quencher, side channel, single point]
O=CNCCCc1nc2ccccc2n1CCc1ccccc1 | inconclusive: 7.08 µM [fluorescent, side channel, single point]
O=C(O)CCCN1C(=O)/C(=C\C(Cl)=C\c2ccccc2)SC1=S | inconclusive: 8.91 µM [fluorescent, side channel, partial curve]
CSc1nnc(NC(=O)c2nc(S(=O)(=O)Cc3ccccc3F)ncc2Cl)s1 | inconclusive: 63.1 µM [inhibitor, single point]
Cc1csc(NC(=O)c2ccc3ccccc3n2)n1 | inconclusive: 31.6 µM [fluorescent, side channel, partial curve]
Cc1ccc(S(=O)(=O)N(CCCN(C)C)Cc2ccc3c(c2)OCO3)cc1 | inconclusive: 11.2 µM [fluorescent, side channel, single point]
O=C(NCc1ccccn1)C1CC(c2ccc(Cl)c(Cl)c2)=NO1 (configuration not stated) | inactive
CCC(C)[C@H](NC(=O)C1CCN(C(=O)[C@H](Cc2ccccc2)NC(=O)OC(C)(C)C)CC1)C(=O)O (some centres not stated) | inconclusive: 35.5 µM [fluorescent, side channel, single point]
N#C/C(=C\c1ccc(O)c(Br)c1)C(=O)NCc1ccccc1 | inconclusive: 89.1 µM [inhibitor, single point]
COc1ccccc1Oc1ccc(N/C=C/C(=O)c2ccc(C)o2)cc1 | inconclusive: 8.91 µM [fluorescent, side channel, partial curve]
Cc1ccc(-c2nc3cnccn3c2Nc2c(C)cccc2C)o1 | inactive
CN1C(=O)c2cccc3c(N(C)C)ccc(c23)C1=O | inconclusive: 39.8 µM [fluorescent, side channel, single point]
C[N+]1(CCCCSc2ccc(O)cc2)CCCCC1 | inactive
Cc1ccc(-c2cn3nc(-c4ccccc4)c(-c4ccccc4)nc3n2)cc1 | inconclusive: 39.8 µM [fluorescent, side channel, partial curve]

Some of these compounds in order of formula weight, ascending:
SMILES | Potency
Cc1ccc(-c2nc3cnccn3c2Nc2c(C)cccc2C)o1 | inactive
COc1ccccc1Oc1ccc(N/C=C/C(=O)c2ccc(C)o2)cc1 | inconclusive: 8.91 µM [fluorescent, side channel, partial curve]
Cc1ccc(S(=O)(=O)N(CCCN(C)C)Cc2ccc3c(c2)OCO3)cc1 | inconclusive: 11.2 µM [fluorescent, side channel, single point]
